Assay: CO diffusion from meat surface into the core during preservation
Settings: nine pound calf meat piece, 5° C.

With `[C-]#[O+]` [CO, carbon monoxide] the “diffusion of CO from the surface to the core” value (ten days, cut in the middle of the sample) was “nearly complete diffusion or saturation” and the “meat radius (from surface to core) changed in color from dark to bright red” value (100% CO about 1.1 atmosphere, after three days) was “About 30%”.

From US20040009273A1, “Method for the long-term preservation of meat and the meat process thereby” (priority 1996, published 2004)
